Experimental data as given in patent US8247596B2 (Sumitomo Chemical Company, Limited, priority 2007, dated 2012).
Some entries share one result that the patent states for a list of compounds. For at least one compound, name, drawing or mass did not settle the structure.

What was measured:
cotton aphids = assay: Test Example 3: spray on cucumber against cotton aphids; type: in vivo, Aphis gossypii; details: 500 ppm, 20 ml/cup sprayed on cucumber with about 20 cotton aphids; six days after spraying
brown rice planthopper [1] = assay: Test Example 2: rice plants absorb test solution from bottom of cup, brown rice planthopper; type: in vivo, Nilaparvata lugens; details: 55.6 ppm, 45 ml absorbed from the bottom of the cup; 30 first-instar larvae released 6 days after treatment; left for 6 days at 25° C.
Culex pipiens pallens = assay: Test Example 6: larvae of Culex pipiens pallens in treated water; type: in vivo; details: active ingredient concentration 3.5 ppm in water; 20 last-instar larvae of Culex pipiens pallens; one day after
Protocol: (§1) A formulation of any one of the present compounds (7), (11), (12), (13), (17), (18t), (18c), (22), (24), (25t), (25c), (26t), (26c), (27), (29), (33), (34), (35), (36), (38), (40), (41), (43), (47), (49), (50) and (55) obtained according to Formulation Example 36 was diluted with water so that the active ingredient concentration was 500 ppm to obtain a test solution.
To 100 mL of ion-exchanged water, 0.7 ml of the test solution was added (active ingredient concentration: 3.5 ppm). Into the solution, 20 last-instar larvae of Culex pipiens pallens were released. One day after, the number of surviving Culex pipiens pallens was examined and the death rate of the pest was calculated.

brown rice planthopper [2] = assay: Test Example 1: spray on rice plants against brown rice planthopper; type: in vivo, Nilaparvata lugens; details: 500 ppm, 20 ml/cup sprayed on rice plants; 30 first-instar larvae released; 6 days at 25° C.
Musca domestica = assay: Test Example 4: filter paper/sucrose bait test on Musca domestica; type: in vivo; details: 500 ppm, 0.7 ml on filter paper; 10 female imagoes of Musca domestica; after 24 hours
Protocol: as §1, with “compounds (1), (4), (5),” for “compounds”, “(13),” for “(13), (17),”, “(18c), (19), (20), (21),” for “(18c),”, “(29), (30), (31), (32),” for “(29),”, “(35),” for “(35), (36), (38),”, “(43),” for “(43), (47),”
A filter paper having a diameter of 5.5 cm was spread on the bottom of a polyethylene cup having a diameter of 5.5 cm and 0.7 ml of the test solution was added dropwise onto the filter paper. As a bait 30 mg of sucrose was uniformly placed on the filter paper. Into the polyethylene cup, 10 female imagoes of Musca domestica were released and the cup was sealed with a lid. After 24 hours, the number of surviving Musca domestica was examined and the death rate of the pest was calculated.

| Compound | number of the parasitic pests (cotton aphids on cucumber) (cotton aphids) | number of the parasitic pests (brown rice planthoppers on the rice plants) (brown rice planthopper [1]) | pest death rate (Culex pipiens pallens) | number of the parasitic pests (brown rice planthoppers on the rice plants) (brown rice planthopper [2]) | pest death rate (Musca domestica) |
| --- | --- | --- | --- | --- | --- |
| CCON=C1CCC(C(C#N)S(=O)(=O)CCC(F)(F)F)CC1 (stereo not shown) [present compound (35), 2-[4-(ethoxyimino)cyclohexyl]-2-(3,3,3-trifluoropropylsufonyl)acetonitrile] | ≤ 3 | ≤ 3 | ≥ 95% | ≤ 3 | ≥ 90% |
| C=CC(C)C(C#N)(C1CCC(=NOC)CC1)S(=O)(=O)CCC(F)(F)F (stereo not shown) [present compound (43), 2-[4-(methoxyimino)cyclohexyl]-3-methyl-2-(3,3,3-trifluoropropylsufonyl)-4-pentenenitrile] | ≤ 3 | ≤ 3 | ≥ 95% | ≤ 3 | ≥ 90% |
